According to the supplement of paper PMC6411743:
± gives the standard deviation of the averaged measurements. Only a part is listed here, and it is no random draw.

Chains of the proteins cited; added tags and fusions are not shown. Lines headed by an entry give the natural chain unless they say otherwise; changes in a name come on top.
UniProt Q05048: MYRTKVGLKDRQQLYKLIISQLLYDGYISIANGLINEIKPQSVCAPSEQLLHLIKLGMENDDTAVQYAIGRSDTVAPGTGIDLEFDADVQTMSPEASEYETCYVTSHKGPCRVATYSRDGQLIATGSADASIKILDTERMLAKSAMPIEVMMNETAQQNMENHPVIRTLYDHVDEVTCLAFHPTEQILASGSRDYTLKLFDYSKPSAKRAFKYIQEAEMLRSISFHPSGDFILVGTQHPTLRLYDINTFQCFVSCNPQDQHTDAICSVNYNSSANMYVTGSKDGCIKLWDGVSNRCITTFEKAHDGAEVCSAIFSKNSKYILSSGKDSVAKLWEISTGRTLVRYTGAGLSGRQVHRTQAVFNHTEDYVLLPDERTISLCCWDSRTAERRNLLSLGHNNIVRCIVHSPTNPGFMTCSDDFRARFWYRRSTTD
UniProt P60468, whole entry: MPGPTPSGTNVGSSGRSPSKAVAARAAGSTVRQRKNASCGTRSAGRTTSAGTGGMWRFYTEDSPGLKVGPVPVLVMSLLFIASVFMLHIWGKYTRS
UniProt P60903, whole entry: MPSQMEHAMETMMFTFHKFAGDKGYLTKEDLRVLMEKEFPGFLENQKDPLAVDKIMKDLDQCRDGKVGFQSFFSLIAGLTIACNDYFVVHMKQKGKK
UniProt P56199, whole entry: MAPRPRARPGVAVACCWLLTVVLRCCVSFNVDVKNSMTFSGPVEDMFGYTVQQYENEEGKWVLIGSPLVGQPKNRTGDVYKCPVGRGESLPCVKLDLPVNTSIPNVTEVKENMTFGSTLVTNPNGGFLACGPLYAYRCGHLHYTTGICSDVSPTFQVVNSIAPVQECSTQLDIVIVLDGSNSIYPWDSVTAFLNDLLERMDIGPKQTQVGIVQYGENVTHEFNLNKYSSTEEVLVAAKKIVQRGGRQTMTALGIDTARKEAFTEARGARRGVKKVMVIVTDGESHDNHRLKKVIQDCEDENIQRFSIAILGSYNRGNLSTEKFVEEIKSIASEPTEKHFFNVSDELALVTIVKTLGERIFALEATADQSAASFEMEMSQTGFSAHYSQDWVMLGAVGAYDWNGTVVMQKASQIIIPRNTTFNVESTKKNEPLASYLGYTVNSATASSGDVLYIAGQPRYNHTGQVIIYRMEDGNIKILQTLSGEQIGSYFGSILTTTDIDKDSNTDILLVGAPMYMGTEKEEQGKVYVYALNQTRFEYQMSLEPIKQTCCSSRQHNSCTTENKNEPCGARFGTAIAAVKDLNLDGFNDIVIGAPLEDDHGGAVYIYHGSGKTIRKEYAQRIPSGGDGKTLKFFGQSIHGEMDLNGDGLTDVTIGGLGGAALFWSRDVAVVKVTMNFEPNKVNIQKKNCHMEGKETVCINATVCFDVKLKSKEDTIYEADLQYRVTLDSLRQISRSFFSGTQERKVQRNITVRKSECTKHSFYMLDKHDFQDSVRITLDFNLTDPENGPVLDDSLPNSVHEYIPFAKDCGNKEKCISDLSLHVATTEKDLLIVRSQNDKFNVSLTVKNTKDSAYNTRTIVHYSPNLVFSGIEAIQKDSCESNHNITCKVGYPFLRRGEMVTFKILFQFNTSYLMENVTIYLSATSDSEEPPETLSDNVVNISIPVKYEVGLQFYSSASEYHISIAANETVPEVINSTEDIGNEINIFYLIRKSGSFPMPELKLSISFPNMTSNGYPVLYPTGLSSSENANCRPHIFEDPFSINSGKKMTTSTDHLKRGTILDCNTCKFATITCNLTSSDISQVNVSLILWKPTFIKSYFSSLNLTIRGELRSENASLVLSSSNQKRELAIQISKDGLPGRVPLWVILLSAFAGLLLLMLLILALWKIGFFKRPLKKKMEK
UniProt Q04917: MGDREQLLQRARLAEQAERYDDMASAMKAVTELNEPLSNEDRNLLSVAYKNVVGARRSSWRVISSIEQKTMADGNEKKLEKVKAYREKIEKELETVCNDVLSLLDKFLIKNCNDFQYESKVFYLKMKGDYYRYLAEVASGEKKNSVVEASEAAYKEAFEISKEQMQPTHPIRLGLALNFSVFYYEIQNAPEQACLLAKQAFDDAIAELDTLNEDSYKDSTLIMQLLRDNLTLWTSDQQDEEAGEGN
UniProt P62312: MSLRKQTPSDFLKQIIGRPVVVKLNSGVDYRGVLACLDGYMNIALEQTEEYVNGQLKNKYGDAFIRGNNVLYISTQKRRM
UniProt P63092, whole entry, looked up: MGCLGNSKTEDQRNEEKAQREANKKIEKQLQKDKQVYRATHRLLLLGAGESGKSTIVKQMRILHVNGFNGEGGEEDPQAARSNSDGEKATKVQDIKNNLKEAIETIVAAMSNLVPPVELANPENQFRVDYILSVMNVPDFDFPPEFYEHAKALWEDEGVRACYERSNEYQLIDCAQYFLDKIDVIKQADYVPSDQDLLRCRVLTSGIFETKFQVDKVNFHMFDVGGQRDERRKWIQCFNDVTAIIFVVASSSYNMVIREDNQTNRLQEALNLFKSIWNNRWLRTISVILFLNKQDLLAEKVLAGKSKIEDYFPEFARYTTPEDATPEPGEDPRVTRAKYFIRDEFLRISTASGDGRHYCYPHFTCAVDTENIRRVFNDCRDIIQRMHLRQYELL
UniProt P60953, whole entry, looked up: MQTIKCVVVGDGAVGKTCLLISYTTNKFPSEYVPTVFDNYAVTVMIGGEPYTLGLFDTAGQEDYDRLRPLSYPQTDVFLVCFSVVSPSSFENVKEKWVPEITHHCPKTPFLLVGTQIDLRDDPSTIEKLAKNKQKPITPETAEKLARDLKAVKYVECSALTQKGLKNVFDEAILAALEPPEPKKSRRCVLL
UniProt P60604: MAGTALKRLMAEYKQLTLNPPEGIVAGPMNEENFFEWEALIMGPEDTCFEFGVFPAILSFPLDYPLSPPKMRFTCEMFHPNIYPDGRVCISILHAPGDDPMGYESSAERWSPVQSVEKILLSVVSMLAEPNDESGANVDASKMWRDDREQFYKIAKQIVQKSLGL
UniProt P78540: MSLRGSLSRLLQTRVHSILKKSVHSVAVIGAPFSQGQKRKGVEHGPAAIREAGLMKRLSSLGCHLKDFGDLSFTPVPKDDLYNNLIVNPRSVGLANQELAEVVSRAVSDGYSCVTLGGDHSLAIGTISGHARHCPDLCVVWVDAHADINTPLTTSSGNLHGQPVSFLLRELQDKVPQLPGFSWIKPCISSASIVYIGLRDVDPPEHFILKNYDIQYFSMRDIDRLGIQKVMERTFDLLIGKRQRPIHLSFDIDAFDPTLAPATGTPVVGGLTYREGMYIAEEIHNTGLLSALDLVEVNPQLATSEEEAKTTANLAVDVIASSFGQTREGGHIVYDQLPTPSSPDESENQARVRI
UniProt P61960, whole entry: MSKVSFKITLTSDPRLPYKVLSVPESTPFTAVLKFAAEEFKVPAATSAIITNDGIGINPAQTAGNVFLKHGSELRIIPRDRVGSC
UniProt P62316, whole entry: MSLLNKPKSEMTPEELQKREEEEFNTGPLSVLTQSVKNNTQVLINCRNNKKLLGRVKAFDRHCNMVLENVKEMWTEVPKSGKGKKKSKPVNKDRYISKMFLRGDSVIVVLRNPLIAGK
UniProt Q01196, whole entry: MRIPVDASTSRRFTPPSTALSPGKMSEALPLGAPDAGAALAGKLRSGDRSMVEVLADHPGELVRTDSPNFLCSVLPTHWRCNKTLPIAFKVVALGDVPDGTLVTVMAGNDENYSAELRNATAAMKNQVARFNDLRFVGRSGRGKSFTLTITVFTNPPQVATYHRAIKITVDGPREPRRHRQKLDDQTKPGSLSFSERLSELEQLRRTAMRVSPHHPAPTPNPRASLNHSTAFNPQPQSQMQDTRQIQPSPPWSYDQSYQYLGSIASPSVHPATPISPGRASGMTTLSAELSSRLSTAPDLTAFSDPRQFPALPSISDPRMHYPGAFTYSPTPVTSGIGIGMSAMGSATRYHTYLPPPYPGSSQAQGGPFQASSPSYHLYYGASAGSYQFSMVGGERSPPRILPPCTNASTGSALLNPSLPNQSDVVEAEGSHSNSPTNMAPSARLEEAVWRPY
UniProt P84095: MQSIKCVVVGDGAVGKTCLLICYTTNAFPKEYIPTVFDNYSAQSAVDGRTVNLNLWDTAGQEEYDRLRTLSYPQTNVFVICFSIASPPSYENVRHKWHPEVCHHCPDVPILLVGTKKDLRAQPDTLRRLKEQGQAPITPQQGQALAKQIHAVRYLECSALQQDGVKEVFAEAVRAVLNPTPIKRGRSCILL
UniProt P83876: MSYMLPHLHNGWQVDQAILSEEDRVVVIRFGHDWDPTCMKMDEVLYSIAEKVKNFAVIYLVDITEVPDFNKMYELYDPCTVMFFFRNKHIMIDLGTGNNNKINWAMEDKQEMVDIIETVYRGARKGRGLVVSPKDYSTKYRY
UniProt Q06210: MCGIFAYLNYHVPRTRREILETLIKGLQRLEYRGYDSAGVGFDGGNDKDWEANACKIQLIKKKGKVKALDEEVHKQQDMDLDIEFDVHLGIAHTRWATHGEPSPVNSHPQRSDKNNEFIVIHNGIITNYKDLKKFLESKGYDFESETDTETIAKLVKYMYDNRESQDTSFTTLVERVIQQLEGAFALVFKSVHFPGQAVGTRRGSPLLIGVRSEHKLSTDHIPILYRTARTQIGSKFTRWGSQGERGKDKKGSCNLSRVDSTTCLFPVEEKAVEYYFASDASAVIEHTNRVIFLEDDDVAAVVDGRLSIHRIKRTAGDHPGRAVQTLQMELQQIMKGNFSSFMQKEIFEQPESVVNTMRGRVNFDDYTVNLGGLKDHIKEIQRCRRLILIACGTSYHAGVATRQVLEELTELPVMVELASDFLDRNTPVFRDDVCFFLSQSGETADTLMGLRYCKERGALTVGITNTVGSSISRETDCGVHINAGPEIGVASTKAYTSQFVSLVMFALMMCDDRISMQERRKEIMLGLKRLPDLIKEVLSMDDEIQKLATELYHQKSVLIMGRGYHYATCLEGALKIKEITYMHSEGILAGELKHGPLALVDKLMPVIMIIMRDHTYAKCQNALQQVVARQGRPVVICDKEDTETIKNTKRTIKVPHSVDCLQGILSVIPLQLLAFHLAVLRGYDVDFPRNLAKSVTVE
UniProt P78310: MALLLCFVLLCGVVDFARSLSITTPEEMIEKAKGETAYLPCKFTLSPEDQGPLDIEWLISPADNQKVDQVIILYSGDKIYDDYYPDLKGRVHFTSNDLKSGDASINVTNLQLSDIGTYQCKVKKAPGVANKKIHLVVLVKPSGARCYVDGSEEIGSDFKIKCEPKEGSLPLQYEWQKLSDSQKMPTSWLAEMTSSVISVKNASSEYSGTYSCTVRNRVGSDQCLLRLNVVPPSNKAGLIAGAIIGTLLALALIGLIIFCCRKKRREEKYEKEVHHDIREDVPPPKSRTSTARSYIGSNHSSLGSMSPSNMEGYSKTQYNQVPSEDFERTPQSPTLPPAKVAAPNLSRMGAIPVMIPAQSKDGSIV
UniProt Q07617: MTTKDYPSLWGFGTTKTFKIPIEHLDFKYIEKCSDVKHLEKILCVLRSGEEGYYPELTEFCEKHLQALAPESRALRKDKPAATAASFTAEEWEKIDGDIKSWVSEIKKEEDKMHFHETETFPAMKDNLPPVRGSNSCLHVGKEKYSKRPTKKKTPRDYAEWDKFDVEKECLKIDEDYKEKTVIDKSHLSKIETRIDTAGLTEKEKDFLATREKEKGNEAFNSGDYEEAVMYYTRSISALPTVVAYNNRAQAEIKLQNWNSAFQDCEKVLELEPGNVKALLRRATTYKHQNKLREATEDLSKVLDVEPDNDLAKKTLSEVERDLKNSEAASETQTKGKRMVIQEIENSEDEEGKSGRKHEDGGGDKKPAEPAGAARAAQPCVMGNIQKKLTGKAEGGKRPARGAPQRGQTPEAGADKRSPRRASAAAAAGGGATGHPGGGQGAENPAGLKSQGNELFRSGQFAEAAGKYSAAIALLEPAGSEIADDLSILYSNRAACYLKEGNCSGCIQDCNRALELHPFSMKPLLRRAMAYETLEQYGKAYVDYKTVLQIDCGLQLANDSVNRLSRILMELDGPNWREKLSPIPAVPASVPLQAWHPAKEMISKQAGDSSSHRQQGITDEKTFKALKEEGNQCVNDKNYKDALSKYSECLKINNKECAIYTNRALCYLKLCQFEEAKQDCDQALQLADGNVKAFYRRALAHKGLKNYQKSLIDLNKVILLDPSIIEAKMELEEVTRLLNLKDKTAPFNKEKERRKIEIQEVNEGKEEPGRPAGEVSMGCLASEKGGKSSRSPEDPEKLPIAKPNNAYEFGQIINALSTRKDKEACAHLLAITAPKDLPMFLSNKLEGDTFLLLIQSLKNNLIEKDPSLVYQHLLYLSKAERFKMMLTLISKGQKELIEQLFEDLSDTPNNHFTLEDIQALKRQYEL
UniProt Q00534, whole entry: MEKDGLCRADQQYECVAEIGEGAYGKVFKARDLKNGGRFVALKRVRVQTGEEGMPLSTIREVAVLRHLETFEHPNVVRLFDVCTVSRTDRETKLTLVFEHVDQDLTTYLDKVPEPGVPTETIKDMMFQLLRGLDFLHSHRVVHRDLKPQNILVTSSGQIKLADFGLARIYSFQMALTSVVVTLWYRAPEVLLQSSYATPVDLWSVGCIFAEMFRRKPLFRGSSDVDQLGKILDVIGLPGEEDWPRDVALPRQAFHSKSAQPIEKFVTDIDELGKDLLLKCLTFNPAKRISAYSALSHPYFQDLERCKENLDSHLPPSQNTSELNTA

Compound: Nc1ncnc2c1ncn2[C@@H]1O[C@H](COP(=O)(O)OP(=O)(O)NP(=O)(O)O)[C@@H](O)[C@H]1O [adenylyl imidodiphosphate]
Test: NP40-soluble protein abundance relative to vehicle (solubility fold change) (ratio); higher = more soluble protein in presence of AMP-PNP
In short: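 In three independent experiments, Jurkat crude lysate made by Dounce homogenisation was treated for 10 min at room temperature and then 3 min at 37 °C with eight concentrations ranging from 0.1 to 10 mM. It was then solubilised with 0.8% NP40 plus benzonase for 60 min at 4 °C and ultracentrifuged. The supernatant was TMT-labelled for LC-MS/MS, and each value is the fold change against the detergent-processed vehicle for the same replicate, using vsn-normalised intensities.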

Target	NP40-soluble protein abundance (concentration: 1mM)	NP40-soluble protein abundance (concentration: 2mM)	NP40-soluble protein abundance (concentration: 4mM)	NP40-soluble protein abundance (concentration: 6mM)	NP40-soluble protein abundance (concentration: 8mM)	NP40-soluble protein abundance (concentration: 10mM)
CSTF1 (UniProt Q05048)	0.9781 ± 0.0088	0.931 ± 0.075	1 ± 0.015	1 ± 0.015	1.069 ± 0.0036	1.02 ± 0.046
UniProt Q04864-2|Q04864	1.01 ± 0.023	0.974 ± 0.012	0.9971 ± 0.0093	1.01 ± 0.019	1.02 ± 0.012	1.01 ± 0.021
SEC61B (UniProt P60468)	0.99 ± 0.032	1.09 ± 0.096	1.07 ± 0.046	1.08 ± 0.089	1.06 ± 0.089	1.1 ± 0.092
S100A10 (UniProt P60903)	1.02 ± 0.038	1.05 ± 0.073	1 ± 0.08	0.96 ± 0.045	0.961 ± 0.061	0.978 ± 0.12
GTF2B (UniProt Q00403)	0.954 ± 0.014	0.924 ± 0.071	0.958 ± 0.017	1.01 ± 0.013	0.994 ± 0.012	1 ± 0.025
RAB4B (UniProt P61018)	0.942 ± 0.027	0.918 ± 0.038	0.996 ± 0.014	1.02 ± 0.034	1.02 ± 0.081	1.02 ± 0.023
NOP14 (UniProt P78316)	1 ± 0.011	1.04 ± 0.053	0.984 ± 0.048	0.961 ± 0.013	0.931 ± 0.012	0.973 ± 0.014
ITGA1 (UniProt P56199)	1.03 ± 0.019	1.04 ± 0.025	1.04 ± 0.039	1.02 ± 0.028	1.003 ± 0.0087	0.972 ± 0.026
UniProt P61160	1.02 ± 0.017	0.922 ± 0.1	0.983 ± 0.021	0.968 ± 0.0053	1.01 ± 0.029	0.948 ± 0.024
UniProt P62277	0.9222 ± 0.0085	0.882 ± 0.048	0.901 ± 0.083	0.895 ± 0.038	0.829 ± 0.094	0.897 ± 0.13
UniProt P62875	0.923 ± 0.058	0.924 ± 0.041	0.948 ± 0.1	1.04 ± 0.072	1.02 ± 0.052	0.995 ± 0.099
YWHAH (UniProt Q04917)	1.01 ± 0.046	1.12 ± 0.17	1.01 ± 0.078	1.02 ± 0.075	1.01 ± 0.033	0.991 ± 0.11
CDR2 (UniProt Q01850)	0.959 ± 0.01	0.943 ± 0.0068	0.964 ± 0.048	0.9699 ± 0.001	0.958 ± 0.015	0.971 ± 0.025
UniProt P62256	1.02 ± 0.035	1.09 ± 0.093	1.01 ± 0.015	1.04 ± 0.012	0.994 ± 0.022	1 ± 0.015
UniProt Q04760 and related entries	0.985 ± 0.039	1.02 ± 0.052	0.971 ± 0.02	1.02 ± 0.061	0.997 ± 0.025	0.995 ± 0.06
UniProt P62312	0.949 ± 0.039	0.997 ± 0.066	0.995 ± 0.1	1.1 ± 0.11	1.11 ± 0.061	1.13 ± 0.086
UniProt Q08209 and related entries	1.06 ± 0.025	1.04 ± 0.034	1.03 ± 0.033	0.999 ± 0.043	0.967 ± 0.034	0.986 ± 0.045
UniProt P63092 and related entries	0.972 ± 0.058	0.922 ± 0.039	0.953 ± 0.05	0.981 ± 0.052	1 ± 0.05	0.959 ± 0.021
UniProt Q01085-2	0.997 ± 0.044	0.976 ± 0.057	0.992 ± 0.029	0.957 ± 0.037	0.9409 ± 0.0074	0.952 ± 0.032
XPC (UniProt Q01831)	1.03 ± 0.026	1.04 ± 0.033	1.05 ± 0.013	1.03 ± 0.045	1.03 ± 0.015	1.06 ± 0.013
UniProt P62258	0.989 ± 0.01	1.04 ± 0.063	0.988 ± 0.025	1.05 ± 0.069	1.03 ± 0.061	1 ± 0.074
UniProt P60953 and related entries	1.06 ± 0.038	1.04 ± 0.057	0.988 ± 0.037	0.997 ± 0.02	0.984 ± 0.031	0.965 ± 0.025
TFAM (UniProt Q00059)	0.934 ± 0.12	1.01 ± 0.065	0.893 ± 0.11	0.925 ± 0.12	0.96 ± 0.022	0.908 ± 0.086
UniProt P60604 and related entries	1.01 ± 0.029	0.996 ± 0.1	1.02 ± 0.068	1.02 ± 0.077	1.03 ± 0.064	1.03 ± 0.055
ARG2 (UniProt P78540)	0.983 ± 0.026	1.02 ± 0.033	1.02 ± 0.033	1.01 ± 0.027	0.997 ± 0.019	0.985 ± 0.038
UniProt P61960 and related entries	0.981 ± 0.054	1.02 ± 0.1	0.969 ± 0.056	0.9077 ± 0.0081	0.922 ± 0.016	0.884 ± 0.054

Target	NP40-soluble protein abundance (concentration: 1mM)	NP40-soluble protein abundance (concentration: 2mM)	NP40-soluble protein abundance (concentration: 4mM)	NP40-soluble protein abundance (concentration: 6mM)	NP40-soluble protein abundance (concentration: 8mM)	NP40-soluble protein abundance (concentration: 10mM)
UniProt P62316	0.981 ± 0.025	1.05 ± 0.084	1.02 ± 0.05	1.23 ± 0.14	1.25 ± 0.064	1.33 ± 0.13
UniProt Q03188 and related entries	1.002 ± 0.0099	1.05 ± 0.04	1.03 ± 0.025	1 ± 0.044	0.976 ± 0.012	1.01 ± 0.025
UniProt P62995 and related entries	1.02 ± 0.096	1.04 ± 0.038	1.02 ± 0.11	0.993 ± 0.12	0.95 ± 0.088	1.01 ± 0.18
MLLT1 (UniProt Q03111)	1.06 ± 0.057	1.11 ± 0.089	1.09 ± 0.054	1.09 ± 0.039	1.06 ± 0.055	1.1 ± 0.063
UniProt Q02809 and related entries	1.04 ± 0.061	1.04 ± 0.028	1.03 ± 0.067	1.05 ± 0.067	1.05 ± 0.066	1.04 ± 0.074
UniProt P62701	0.95 ± 0.063	0.87 ± 0.091	0.879 ± 0.11	0.873 ± 0.065	0.821 ± 0.071	0.851 ± 0.13
UniProt Q01196-11|Q01196-8|Q01196 and related entries	1.02 ± 0.031	1.05 ± 0.013	1.042 ± 0.0059	1.05 ± 0.046	1.03 ± 0.025	1.089 ± 0.01
UniProt P62244	0.919 ± 0.062	0.84 ± 0.11	0.857 ± 0.1	0.883 ± 0.068	0.835 ± 0.076	0.855 ± 0.094
UniProt P78332 and related entries	1.07 ± 0.029	1.18 ± 0.13	1.14 ± 0.061	1.14 ± 0.09	1.13 ± 0.051	1.19 ± 0.044
UniProt P78346 and related entries	1.03 ± 0.054	0.956 ± 0.082	1.08 ± 0.094	1.01 ± 0.016	1.1 ± 0.081	1.02 ± 0.055
UniProt P84095	0.96 ± 0.038	0.936 ± 0.013	0.925 ± 0.022	0.97 ± 0.079	0.975 ± 0.029	0.967 ± 0.04
UniProt Q08170	0.997 ± 0.04	0.969 ± 0.033	0.869 ± 0.059	0.799 ± 0.072	0.781 ± 0.091	0.762 ± 0.13
UniProt P61163	0.97 ± 0.05	0.868 ± 0.12	0.935 ± 0.076	0.935 ± 0.031	0.975 ± 0.076	0.914 ± 0.12
UniProt P83916	1.05 ± 0.018	1.08 ± 0.03	1.02 ± 0.013	1.03 ± 0.014	1.05 ± 0.028	1.05 ± 0.027
UniProt P83876	1.02 ± 0.031	0.969 ± 0.019	0.964 ± 0.023	1.02 ± 0.032	1.01 ± 0.016	1.02 ± 0.013
UniProt Q06210 and related entries	0.972 ± 0.029	0.895 ± 0.093	0.951 ± 0.027	0.985 ± 0.037	1.02 ± 0.038	0.945 ± 0.029
MTPN (UniProt P58546)	0.959 ± 0.04	1.08 ± 0.11	0.943 ± 0.029	0.981 ± 0.011	0.892 ± 0.05	0.928 ± 0.084
UniProt P78310 and related entries	1.02 ± 0.032	1.06 ± 0.041	1.02 ± 0.047	0.986 ± 0.033	0.983 ± 0.012	1 ± 0.071
UniProt P61978-2|P61978-3	1.02 ± 0.03	1.06 ± 0.019	1.018 ± 0.0014	1.05 ± 0.016	1.02 ± 0.026	1.05 ± 0.044
SPAG1 (UniProt Q07617)	0.974 ± 0.019	1.02 ± 0.034	0.986 ± 0.028	0.98 ± 0.011	1 ± 0.013	1.01 ± 0.022
MRPS5 (UniProt P82675)	0.962 ± 0.077	0.948 ± 0.087	0.943 ± 0.13	0.914 ± 0.14	0.915 ± 0.13	0.936 ± 0.2
LRP1 (UniProt Q07954)	0.954 ± 0.027	1.03 ± 0.068	0.979 ± 0.036	0.97 ± 0.039	0.96 ± 0.013	0.996 ± 0.042
CDK6 (UniProt Q00534)	0.987 ± 0.029	0.951 ± 0.022	0.959 ± 0.03	0.967 ± 0.012	0.945 ± 0.033	0.91 ± 0.029
ACTR3 (UniProt P61158)	1.01 ± 0.039	0.916 ± 0.11	1.003 ± 0.0062	0.96 ± 0.031	1.02 ± 0.04	0.95 ± 0.031
UniProt P78362 and related entries	0.958 ± 0.015	1.05 ± 0.078	1.05 ± 0.021	1.15 ± 0.06	1.17 ± 0.063	1.29 ± 0.13

Some of the entries so far, field by field:
UniProt P83876
  NP40-soluble protein abundance (concentration: 1mM): 1.02 ± 0.031
  NP40-soluble protein abundance (concentration: 2mM): 0.969 ± 0.019
  NP40-soluble protein abundance (concentration: 4mM): 0.964 ± 0.023
  NP40-soluble protein abundance (concentration: 6mM): 1.02 ± 0.032
  NP40-soluble protein abundance (concentration: 8mM): 1.01 ± 0.016
  NP40-soluble protein abundance (concentration: 10mM): 1.02 ± 0.013
UniProt Q06210 and related entries
  NP40-soluble protein abundance (concentration: 1mM): 0.972 ± 0.029
  NP40-soluble protein abundance (concentration: 2mM): 0.895 ± 0.093
  NP40-soluble protein abundance (concentration: 4mM): 0.951 ± 0.027
  NP40-soluble protein abundance (concentration: 6mM): 0.985 ± 0.037
  NP40-soluble protein abundance (concentration: 8mM): 1.02 ± 0.038
  NP40-soluble protein abundance (concentration: 10mM): 0.945 ± 0.029
MTPN (UniProt P58546)
  NP40-soluble protein abundance (concentration: 1mM): 0.959 ± 0.04
  NP40-soluble protein abundance (concentration: 2mM): 1.08 ± 0.11
  NP40-soluble protein abundance (concentration: 4mM): 0.943 ± 0.029
  NP40-soluble protein abundance (concentration: 6mM): 0.981 ± 0.011
  NP40-soluble protein abundance (concentration: 8mM): 0.892 ± 0.05
  NP40-soluble protein abundance (concentration: 10mM): 0.928 ± 0.084
